# Results from one PubChem assay

From PubChem BioAssay record AID504749 (NCATS, 2011).

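A panel of P. falciparum strains inside erythrocytes is exposed to compounds for three days, then a DNA-binding dye reports the amount of parasite DNA.
Each compound was titrated across a series from about 0.000037 to 29 µM.
The number is the fitted AC50, the concentration giving a half-maximal change in signal; a lower value means higher potency, whether the curve shows a decrease or an increase.
Calls follow the curve class and fit quality: every row here is inconclusive, covering signal-raising curves and weak, poorly fitted, partial or highest-dose-only inhibition curves.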

Values are in µM.
Every entry below has the call inconclusive.
These entries are mostly ones the record files as inconclusive; other results of the assay are not listed here.
A potency from a partial, single-point or poor curve is only a rough figure.

N#CC(C#N)=Cc1cc(O)c(O)c(O)c1 [CP325] gave potency 13.46 µM (inhibitor, single point).
N#CC(C#N)=Cc1cc(O)c(O)c(O)c1 [CP256] gave potency 15.85 µM (inhibitor, single point).
N#CC(C#N)=Cc1cc(O)c(O)c(O)c1 [CP291] gave potency 15.1 µM (inhibitor, single point).
N#CC(C#N)=Cc1cc(O)c(O)c(O)c1 [CP191] gave potency 15.85 µM (inhibitor, single point).
N#CC(C#N)=Cc1cc(O)c(O)c(O)c1 [CP305] gave potency 15.1 µM (inhibitor, single point).
N#CC(C#N)=Cc1cc(O)c(O)c(O)c1 [ATS189] gave potency 14.13 µM (inhibitor, single point).
N#CC(C#N)=Cc1cc(O)c(O)c(O)c1 [CP315] gave potency 19.01 µM (inhibitor, single point).
N#CC(C#N)=Cc1cc(O)c(O)c(O)c1 [CP265] gave potency 11.22 µM (inhibitor, single point).
N#CC(C#N)=Cc1cc(O)c(O)c(O)c1 [CP268] gave potency 19.01 µM (inhibitor, single point).
N#CC(C#N)=Cc1cc(O)c(O)c(O)c1 [CP201] gave potency 21.33 µM (inhibitor, single point).
N#CC(C#N)=Cc1cc(O)c(O)c(O)c1 [CP203] gave potency 13.46 µM (inhibitor, single point).
N#CC(C#N)=Cc1cc(O)c(O)c(O)c1 [JCK] gave potency 12.59 µM (inhibitor, single point).
N#CC(C#N)=Cc1cc(O)c(O)c(O)c1 [DFO2036] gave potency 11.22 µM (inhibitor, single point).
N#CC(C#N)=Cc1cc(O)c(O)c(O)c1 [DIV30] gave potency 16.94 µM (inhibitor, partial curve).
N#CC(C#N)=Cc1cc(O)c(O)c(O)c1 [CP215] gave potency 19.01 µM (inhibitor, single point).
N#CC(C#N)=Cc1cc(O)c(O)c(O)c1 [FAB9] gave potency 12.59 µM (inhibitor, single point).
N#CC(C#N)=Cc1cc(O)c(O)c(O)c1 [CP238] gave potency 10 µM (inhibitor, single point).
N#CC(C#N)=Cc1cc(O)c(O)c(O)c1 [CP252] gave potency 15.85 µM (inhibitor, single point).
N#CC(C#N)=Cc1cc(O)c(O)c(O)c1 [CP217] gave potency 12.59 µM (inhibitor, single point).
N#CC(C#N)=Cc1cc(O)c(O)c(O)c1 [ATS95] gave potency 15.85 µM (inhibitor, single point).
CCC(C)(Oc1ccc(C2(c3ccc(OC(C)(CC)C(=O)O)cc3)CCCCC2)cc1)C(=O)O (configuration not stated) [CP260] gave potency 17.78 µM (inhibitor, single point).
CCC(C)(Oc1ccc(C2(c3ccc(OC(C)(CC)C(=O)O)cc3)CCCCC2)cc1)C(=O)O (configuration not stated) [TAB109] gave potency 3.981 µM (inhibitor, single point).
CC#C[C@]1(O)CC[C@H]2[C@@H]3CCC4=CC(=O)CCC4=C3[C@@H](c3ccc(N(C)C)cc3)C[C@@]21C [CP265] gave potency 11.22 µM (inhibitor, single point).
CC#C[C@]1(O)CC[C@H]2[C@@H]3CCC4=CC(=O)CCC4=C3[C@@H](c3ccc(N(C)C)cc3)C[C@@]21C [CP329] gave potency 16.94 µM (inhibitor, single point).
CC#C[C@]1(O)CC[C@H]2[C@@H]3CCC4=CC(=O)CCC4=C3[C@@H](c3ccc(N(C)C)cc3)C[C@@]21C [CP238] gave potency 12.59 µM (inhibitor, single point).
CC#C[C@]1(O)CC[C@H]2[C@@H]3CCC4=CC(=O)CCC4=C3[C@@H](c3ccc(N(C)C)cc3)C[C@@]21C [CP185] gave potency 17.78 µM (inhibitor, single point).
CC#C[C@]1(O)CC[C@H]2[C@@H]3CCC4=CC(=O)CCC4=C3[C@@H](c3ccc(N(C)C)cc3)C[C@@]21C [CP192] gave potency 19.01 µM (inhibitor, single point).

Repeated from the top, 3 entries:

With N#CC(C#N)=Cc1cc(O)c(O)c(O)c1 [CP325] the assay gave potency 13.46 µM (inhibitor, single point).
With N#CC(C#N)=Cc1cc(O)c(O)c(O)c1 [CP256] the assay gave potency 15.85 µM (inhibitor, single point).
With N#CC(C#N)=Cc1cc(O)c(O)c(O)c1 [CP291] the assay gave potency 15.1 µM (inhibitor, single point).